Assay results from the supplement of paper PMC10849652.
Some of the results follow.

Chains of the proteins cited; added tags and fusions are not shown. Lines headed by an entry give the natural chain unless they say otherwise; changes in a name come on top.
UniProt Q2M2Z5: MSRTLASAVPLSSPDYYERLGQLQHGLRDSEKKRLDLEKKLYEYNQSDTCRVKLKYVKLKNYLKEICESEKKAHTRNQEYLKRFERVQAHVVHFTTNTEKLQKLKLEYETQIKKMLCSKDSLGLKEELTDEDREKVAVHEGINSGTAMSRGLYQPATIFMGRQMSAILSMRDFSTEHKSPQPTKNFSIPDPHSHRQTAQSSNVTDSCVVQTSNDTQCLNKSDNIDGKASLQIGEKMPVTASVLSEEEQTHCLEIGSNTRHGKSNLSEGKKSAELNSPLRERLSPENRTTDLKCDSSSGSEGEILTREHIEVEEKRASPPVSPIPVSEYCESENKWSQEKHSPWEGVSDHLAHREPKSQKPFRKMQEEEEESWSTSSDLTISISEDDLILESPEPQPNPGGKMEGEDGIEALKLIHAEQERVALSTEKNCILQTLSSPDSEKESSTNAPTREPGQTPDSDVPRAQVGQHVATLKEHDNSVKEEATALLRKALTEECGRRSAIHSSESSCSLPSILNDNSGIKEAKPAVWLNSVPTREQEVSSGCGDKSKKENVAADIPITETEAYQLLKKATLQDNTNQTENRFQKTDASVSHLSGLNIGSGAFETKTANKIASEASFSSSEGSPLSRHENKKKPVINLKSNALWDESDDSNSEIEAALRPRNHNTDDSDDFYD
UniProt O94953: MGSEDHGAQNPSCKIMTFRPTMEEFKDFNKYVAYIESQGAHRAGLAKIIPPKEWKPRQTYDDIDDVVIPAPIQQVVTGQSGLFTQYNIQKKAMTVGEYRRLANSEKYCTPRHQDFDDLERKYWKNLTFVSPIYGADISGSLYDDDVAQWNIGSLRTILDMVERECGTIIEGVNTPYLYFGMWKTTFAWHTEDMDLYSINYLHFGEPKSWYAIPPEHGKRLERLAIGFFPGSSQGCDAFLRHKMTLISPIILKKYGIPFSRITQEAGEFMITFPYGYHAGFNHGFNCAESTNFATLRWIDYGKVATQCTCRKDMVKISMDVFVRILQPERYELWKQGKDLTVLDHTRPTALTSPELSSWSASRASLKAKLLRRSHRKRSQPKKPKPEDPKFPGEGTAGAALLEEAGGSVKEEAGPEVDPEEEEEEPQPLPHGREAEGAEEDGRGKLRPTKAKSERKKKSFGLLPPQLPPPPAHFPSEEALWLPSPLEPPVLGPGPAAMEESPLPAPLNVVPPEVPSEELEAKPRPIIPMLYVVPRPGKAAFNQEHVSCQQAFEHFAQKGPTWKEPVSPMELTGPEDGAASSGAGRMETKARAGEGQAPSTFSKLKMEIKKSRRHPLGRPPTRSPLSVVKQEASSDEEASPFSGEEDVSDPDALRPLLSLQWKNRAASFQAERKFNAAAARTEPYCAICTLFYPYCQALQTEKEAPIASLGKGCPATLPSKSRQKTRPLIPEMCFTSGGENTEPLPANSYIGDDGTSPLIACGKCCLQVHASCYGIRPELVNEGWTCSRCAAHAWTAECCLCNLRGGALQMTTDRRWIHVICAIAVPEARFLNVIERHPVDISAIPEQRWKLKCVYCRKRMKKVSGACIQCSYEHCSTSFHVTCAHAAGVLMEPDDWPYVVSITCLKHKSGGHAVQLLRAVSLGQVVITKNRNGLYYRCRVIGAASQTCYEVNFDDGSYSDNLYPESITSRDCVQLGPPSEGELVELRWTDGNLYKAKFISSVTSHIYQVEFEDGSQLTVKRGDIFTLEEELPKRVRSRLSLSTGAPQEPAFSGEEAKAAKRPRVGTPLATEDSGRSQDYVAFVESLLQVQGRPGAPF
UniProt O00522: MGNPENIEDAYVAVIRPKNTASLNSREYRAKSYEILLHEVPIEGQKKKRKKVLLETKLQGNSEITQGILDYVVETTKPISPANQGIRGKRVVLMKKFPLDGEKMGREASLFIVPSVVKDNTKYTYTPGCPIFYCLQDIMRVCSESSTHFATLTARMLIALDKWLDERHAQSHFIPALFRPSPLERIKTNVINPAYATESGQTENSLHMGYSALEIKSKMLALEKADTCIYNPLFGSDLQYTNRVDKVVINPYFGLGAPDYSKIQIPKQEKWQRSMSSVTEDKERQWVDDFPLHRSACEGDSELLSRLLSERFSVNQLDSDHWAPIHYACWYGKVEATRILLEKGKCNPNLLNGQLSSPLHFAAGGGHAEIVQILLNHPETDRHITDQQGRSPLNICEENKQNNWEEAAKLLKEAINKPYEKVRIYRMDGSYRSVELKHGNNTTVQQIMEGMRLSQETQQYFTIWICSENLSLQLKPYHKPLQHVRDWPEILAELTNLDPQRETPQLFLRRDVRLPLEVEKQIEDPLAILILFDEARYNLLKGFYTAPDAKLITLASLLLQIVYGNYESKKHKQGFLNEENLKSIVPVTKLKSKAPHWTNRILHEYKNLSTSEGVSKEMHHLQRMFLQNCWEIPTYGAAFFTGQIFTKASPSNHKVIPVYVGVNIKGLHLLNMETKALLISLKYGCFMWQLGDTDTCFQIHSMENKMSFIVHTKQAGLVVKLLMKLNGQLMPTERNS
UniProt Q9ULI4: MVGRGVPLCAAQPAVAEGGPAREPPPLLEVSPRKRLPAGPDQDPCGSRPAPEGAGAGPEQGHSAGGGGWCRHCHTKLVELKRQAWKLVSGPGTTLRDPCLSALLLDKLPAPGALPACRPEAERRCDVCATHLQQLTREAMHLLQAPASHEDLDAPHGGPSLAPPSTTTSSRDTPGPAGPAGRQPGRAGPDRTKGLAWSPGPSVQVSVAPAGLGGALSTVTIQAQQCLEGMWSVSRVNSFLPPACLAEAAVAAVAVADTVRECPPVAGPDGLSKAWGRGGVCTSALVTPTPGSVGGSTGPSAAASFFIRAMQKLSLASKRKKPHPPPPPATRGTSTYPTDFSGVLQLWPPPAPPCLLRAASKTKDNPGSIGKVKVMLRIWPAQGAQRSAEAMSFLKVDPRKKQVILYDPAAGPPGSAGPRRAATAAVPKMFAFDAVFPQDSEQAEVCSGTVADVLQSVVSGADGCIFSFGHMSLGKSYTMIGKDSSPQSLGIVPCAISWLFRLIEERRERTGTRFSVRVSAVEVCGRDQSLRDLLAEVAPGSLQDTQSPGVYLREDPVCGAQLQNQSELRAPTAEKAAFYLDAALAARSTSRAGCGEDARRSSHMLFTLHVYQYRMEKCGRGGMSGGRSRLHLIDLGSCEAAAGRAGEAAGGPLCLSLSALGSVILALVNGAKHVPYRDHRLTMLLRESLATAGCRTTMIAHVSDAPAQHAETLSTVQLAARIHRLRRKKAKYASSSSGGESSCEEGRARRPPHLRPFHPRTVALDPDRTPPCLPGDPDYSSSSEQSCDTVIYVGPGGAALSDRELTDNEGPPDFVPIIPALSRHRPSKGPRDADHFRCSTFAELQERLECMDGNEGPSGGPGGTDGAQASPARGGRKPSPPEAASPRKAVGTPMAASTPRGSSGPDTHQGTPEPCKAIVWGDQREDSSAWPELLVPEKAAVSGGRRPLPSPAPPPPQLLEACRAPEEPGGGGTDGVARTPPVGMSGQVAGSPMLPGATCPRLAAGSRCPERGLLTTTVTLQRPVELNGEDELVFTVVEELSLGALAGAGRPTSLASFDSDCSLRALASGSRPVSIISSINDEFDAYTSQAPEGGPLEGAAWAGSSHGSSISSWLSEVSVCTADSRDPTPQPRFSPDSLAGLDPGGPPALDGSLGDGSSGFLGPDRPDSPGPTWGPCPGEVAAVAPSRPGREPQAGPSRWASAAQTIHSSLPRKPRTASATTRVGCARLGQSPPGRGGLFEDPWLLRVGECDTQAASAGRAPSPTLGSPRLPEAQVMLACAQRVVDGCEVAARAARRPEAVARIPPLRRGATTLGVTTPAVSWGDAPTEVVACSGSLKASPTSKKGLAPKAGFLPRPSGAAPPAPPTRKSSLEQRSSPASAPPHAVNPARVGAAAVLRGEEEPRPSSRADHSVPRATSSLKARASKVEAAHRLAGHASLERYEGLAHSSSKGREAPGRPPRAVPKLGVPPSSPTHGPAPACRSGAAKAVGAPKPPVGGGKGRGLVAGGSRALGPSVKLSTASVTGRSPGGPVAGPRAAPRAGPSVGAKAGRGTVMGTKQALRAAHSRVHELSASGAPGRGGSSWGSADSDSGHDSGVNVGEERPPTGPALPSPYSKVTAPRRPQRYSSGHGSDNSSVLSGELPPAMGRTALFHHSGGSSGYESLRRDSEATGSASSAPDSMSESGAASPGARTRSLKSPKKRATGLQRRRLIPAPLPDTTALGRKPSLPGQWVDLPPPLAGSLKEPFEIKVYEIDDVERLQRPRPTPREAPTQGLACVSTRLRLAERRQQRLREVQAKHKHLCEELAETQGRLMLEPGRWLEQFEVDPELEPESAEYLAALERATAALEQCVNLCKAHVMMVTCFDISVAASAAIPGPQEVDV
UniProt O15037: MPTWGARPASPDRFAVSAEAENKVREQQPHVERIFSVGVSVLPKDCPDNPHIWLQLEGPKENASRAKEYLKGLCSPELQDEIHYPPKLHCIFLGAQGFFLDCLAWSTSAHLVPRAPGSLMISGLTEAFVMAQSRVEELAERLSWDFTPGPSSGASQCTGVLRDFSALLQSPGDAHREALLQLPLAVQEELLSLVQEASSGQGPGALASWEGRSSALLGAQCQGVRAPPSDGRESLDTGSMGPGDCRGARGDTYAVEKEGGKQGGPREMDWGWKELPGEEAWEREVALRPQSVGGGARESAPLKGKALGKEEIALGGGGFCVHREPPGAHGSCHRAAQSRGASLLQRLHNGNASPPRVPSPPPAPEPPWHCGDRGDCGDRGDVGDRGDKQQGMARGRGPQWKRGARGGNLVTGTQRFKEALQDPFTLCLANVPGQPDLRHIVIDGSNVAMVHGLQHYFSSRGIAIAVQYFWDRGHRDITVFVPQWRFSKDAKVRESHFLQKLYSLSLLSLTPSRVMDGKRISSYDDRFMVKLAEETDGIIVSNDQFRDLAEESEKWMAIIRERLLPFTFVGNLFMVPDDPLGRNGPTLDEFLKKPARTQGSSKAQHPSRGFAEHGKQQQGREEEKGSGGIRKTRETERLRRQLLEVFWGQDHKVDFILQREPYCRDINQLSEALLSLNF
UniProt Q96MU8: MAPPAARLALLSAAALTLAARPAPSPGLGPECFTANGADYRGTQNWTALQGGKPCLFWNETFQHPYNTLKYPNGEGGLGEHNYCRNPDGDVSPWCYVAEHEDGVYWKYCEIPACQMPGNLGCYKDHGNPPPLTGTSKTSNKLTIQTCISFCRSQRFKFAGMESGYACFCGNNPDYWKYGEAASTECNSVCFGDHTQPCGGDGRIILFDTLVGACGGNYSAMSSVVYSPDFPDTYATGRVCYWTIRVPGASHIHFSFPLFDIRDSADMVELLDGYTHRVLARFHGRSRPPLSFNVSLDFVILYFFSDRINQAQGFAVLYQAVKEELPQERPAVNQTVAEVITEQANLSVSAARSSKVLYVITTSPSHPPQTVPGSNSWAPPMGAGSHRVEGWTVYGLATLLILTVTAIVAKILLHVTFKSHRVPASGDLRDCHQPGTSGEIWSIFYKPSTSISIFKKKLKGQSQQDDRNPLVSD
UniProt Q53HC5: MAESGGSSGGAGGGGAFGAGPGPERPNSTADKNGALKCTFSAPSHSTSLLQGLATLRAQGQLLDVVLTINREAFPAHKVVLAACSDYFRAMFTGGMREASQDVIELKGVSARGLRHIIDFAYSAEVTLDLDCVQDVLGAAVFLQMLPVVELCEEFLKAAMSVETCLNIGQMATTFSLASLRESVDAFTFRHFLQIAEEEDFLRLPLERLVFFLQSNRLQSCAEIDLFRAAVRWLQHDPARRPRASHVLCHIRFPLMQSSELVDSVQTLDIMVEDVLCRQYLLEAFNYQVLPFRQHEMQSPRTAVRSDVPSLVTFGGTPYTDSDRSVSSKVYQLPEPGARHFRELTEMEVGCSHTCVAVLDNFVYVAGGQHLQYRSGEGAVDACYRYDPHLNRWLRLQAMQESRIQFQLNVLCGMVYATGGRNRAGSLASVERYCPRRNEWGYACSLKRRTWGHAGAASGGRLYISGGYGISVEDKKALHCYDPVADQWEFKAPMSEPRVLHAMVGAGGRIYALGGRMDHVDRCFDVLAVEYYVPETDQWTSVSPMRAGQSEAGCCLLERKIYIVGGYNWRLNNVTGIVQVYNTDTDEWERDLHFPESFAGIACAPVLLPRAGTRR
UniProt P07288: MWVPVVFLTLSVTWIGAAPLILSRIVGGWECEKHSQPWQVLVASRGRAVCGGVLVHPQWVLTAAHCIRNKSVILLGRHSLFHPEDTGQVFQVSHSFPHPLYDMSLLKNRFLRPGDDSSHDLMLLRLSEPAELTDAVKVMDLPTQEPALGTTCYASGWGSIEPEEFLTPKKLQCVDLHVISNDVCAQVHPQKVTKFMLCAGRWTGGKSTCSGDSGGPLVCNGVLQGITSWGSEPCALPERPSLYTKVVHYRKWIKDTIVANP

What was measured:
Assay in all cases: log2 fold change, soluble protein after heating vs DMSO (PISA); higher = thermal stabilisation; K562 lysate, 10 uM; active = over 0.2 and 3.5 SD of the protein, either way, in both replicates (recomputed)
[1] = compound: CCCS(=O)(=O)Nc1ccc(F)c(C(=O)c2c[nH]c3ncc(-c4ccc(Cl)cc4)cc23)c1F [vemurafenib]
Summary of the method: (§1)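 Dounce homogenisation of K562 pellets in PBS pH 7.4 with 1 mM MgCl2 produced a crude extract, used at 1 mg/mL protein. Exposure to 10 μM compound lasted 30 min, and aliquots were then heated for 3 min across 48°C-58°C, pooled and brought to 0.5% NP-40 at 4°C. The supernatant after 21,000xg for 90 min was quantified by TMTpro 16plex LC-MS/MS with channel sums equalised. Duplicate values are given as log-two fold change in thermal stability relative to solvent controls.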

[2] = compound: CNC(=O)c1ccc(Nc2ncc(C(F)(F)F)c(NCc3nccnc3N(C)S(C)(=O)=O)n2)cc1 [defactinib]
Summary of the method: as §1

[3] = compound: CCN(CCCOc1ccc2c(Nc3cc(CC(=O)Nc4cccc(F)c4)[nH]n3)ncnc2c1)CCOP(=O)(O)O [barasertib]
Summary of the method: as §1

[4] = compound: CC[C@@H]1C(=O)N(C)c2cnc(Nc3ccc(C(=O)NC4CCN(C)CC4)cc3OC)nc2N1C1CCCC1
Summary of the method: as §1

[5] = compound: CCn1c(C(=O)N(C2CC2)C2CC2)cc2c3c(ncn3C)c(Nc3cc(C)n(C)n3)nc21
Summary of the method: as §1

[6] = compound: CCn1cc(-c2ccnc3[nH]c(-c4cccc(CN(C)C)c4)cc23)c(-c2ccc(NC(=O)N(C)C)cc2)n1
Summary of the method: as §1

[7] = compound: CN1CCC(CNc2ccc3ncc(-c4cccc(OC(F)(F)F)c4)n3n2)CC1
Summary of the method: as §1

[8] = compound: CN1CCN(CCOc2cc(OC3CCOCC3)c3c(Nc4c(Cl)ccc5c4OCO5)ncnc3c2)CC1 [saracatinib]
Summary of the method: as §1

[9] = compound: CN1CCN(c2nc(C3=C(c4c[nH]c5ccccc45)C(=O)NC3=O)c3ccccc3n2)CC1 [sotrastaurin]
Summary of the method: as §1

[10] = compound: CN1CC[C@H](c2c(O)cc(O)c3c(=O)cc(-c4ccccc4Cl)oc23)[C@H](O)C1 [alvocidib]
Summary of the method: as §1

[11] = compound: CN1CCc2c(c3ccccc3n2Cc2ccc(C(=O)NO)cc2)C1 [Tubastatin A]
Summary of the method: as §1

[12] = compound: CNC(=O)C1=CC=CC=C1NC2=NC(=NC=C2Cl)NC3=C(C=C(C=C3)N4CCOCC4)OC
Summary of the method: as §1

[13] = compound: CNc1nc(-c2ccc3c(N)n[nH]c3c2)cc(N2C[C@@H](C(=O)NC3CCCCC3)CC[C@H]2C)n1
Summary of the method: as §1

[14] = compound: COC(=O)N[C@@H](C)CNc1nccc(-c2cn(C(C)C)nc2-c2cc(Cl)cc(NS(C)(=O)=O)c2F)n1 [encorafenib]
Summary of the method: as §1

[15] = compound: COC(=O)[C@H](CCSC)NC(=O)C1=C(C=C(C=C1)NC[C@H](CS)N)C2=CC=CC=C2
Summary of the method: as §1

[16] = compound: COc1cc(Nc2ncc3c(n2)-c2ccc(Cl)cc2C(c2c(F)cccc2OC)=NC3)ccc1C(=O)O [alisertib]
Summary of the method: as §1

[17] = compound: COc1cc2ncnc(Nc3ccc(F)c(Cl)c3)c2cc1OCCCN1CCOCC1 [gefitinib]
Summary of the method: as §1

[18] = compound: CCCS(=O)(=O)Nc1ccc(F)c(C(=O)c2c[nH]c3ncc(Cl)cc23)c1F
Summary of the method: as §1

[19] = compound: CC[C@@H]1C(=O)N(C)c2cnc(Nc3ccc(C(=O)N[C@H]4CC[C@H](N5CCN(CC6CC6)CC5)CC4)cc3OC)nc2N1C(C)C [volasertib]
Summary of the method: as §1

[20] = compound: COc1cc2nc(-c3cc(F)ccc3O)nc(N[C@@H]3CNC[C@H]3C(C)(C)O)c2cc1OC
Summary of the method: as §1

Measured: log2 fold change

KIDINS220 isoform 2 (UniProt Q9ULH0)
inactive: [1] 0.093 | [2] -0.104

KLHDC10 (UniProt Q6PID8)
inactive: [1] 0.032 | [3] 0.064 | [4] -0.01 | [5] 0.034 | [6] -0.069 | [7] 0.097 | [8] -0.109 | [9] -0.047 | [10] -0.061 | [11] 0.001 | [12] -0.073 | [2] -0.221 | [13] -0.222 | [14] 0.046 | [15] -0.063 | [16] 0.008 | [17] -0.057

LAMA2 (UniProt P24043)
inactive: [1] 0.089 | [18] -0.068 | [3] 0.039 | [4] 0.124 | [19] 0.021 | [5] -0.102 | [6] -0.284 | [7] 0.148 | [10] -0.152 | [11] 0.049 | [12] -0.047 | [2] -0.002 | [14] -0.016 | [15] 0.123 | [16] -0.038 | [20] 0.041 | [17] -0.017

Copied from the listing (2 entries):
KIDINS220 isoform 2 (UniProt Q9ULH0)
inactive: [1] 0.093 | [2] -0.104

KLHDC10 (UniProt Q6PID8)
inactive: [1] 0.032 | [3] 0.064 | [4] -0.01 | [5] 0.034 | [6] -0.069 | [7] 0.097 | [8] -0.109 | [9] -0.047 | [10] -0.061 | [11] 0.001 | [12] -0.073 | [2] -0.221 | [13] -0.222 | [14] 0.046 | [15] -0.063 | [16] 0.008 | [17] -0.057

(cont.)

KIZ (UniProt Q2M2Z5)
inactive: [1] 0.053 | [3] -0.034 | [4] 0.002 | [5] -0.02 | [6] 0.018 | [7] 0.1 | [8] -0.116 | [9] -0.013 | [10] -0.086 | [11] 0.107 | [12] -0.011 | [2] -0.086 | [13] 0.08 | [14] 0.024 | [15] -0.229

KDM4B (UniProt O94953)
inactive: [1] 0.06 | [4] -0.075 | [5] 0.175 | [6] 0.085 | [7] 0.073 | [8] -0.011 | [9] -0.07 | [10] -0.077 | [11] -0.007 | [12] -0.064 | [2] 0 | [13] -0.074 | [14] 0.056 | [15] 0.092 | [16] 0.03 | [17] 0.167

KIFC3 isoform 6 (UniProt Q9BVG8)
inactive: [1] 0.052 | [3] 0.025 | [4] 0.409 | [6] 0.284 | [7] 0.256 | [8] 0.005 | [9] 0.028 | [12] 0.003 | [2] -0.255 | [13] 0.308 | [14] -0.053 | [15] 0.04
active: [10] -0.786

KRIT1 (UniProt O00522)
inactive: [1] -0.084 | [18] 0.051 | [3] -0.084 | [4] -0.009 | [19] 0.036 | [5] -0.052 | [8] -0.103 | [9] 0.049 | [11] -0.034 | [12] 0.089 | [2] 0.045 | [13] 0.102 | [14] 0.118 | [15] 0.123 | [16] 0.038 | [20] -0.055 | [17] 0.029

KIF26A (UniProt Q9ULI4)
active: [11] 0.566
inactive: [1] 0.135 | [3] 0 | [4] 0.08 | [5] -0.01 | [6] -0.076 | [7] -0.005 | [8] -0.067 | [9] -0.033 | [10] 0.022 | [12] -0.149 | [2] -0.105 | [13] -0.021 | [14] -0.052 | [15] 0.035 | [16] 0.004 | [17] 0.056

KTN1 (UniProt G3V5Q0)
inactive: [1] 0.136 | [3] 0.018 | [4] 0.067 | [12] 0.183 | [2] -0.059 | [14] -0.052 | [15] -0.021

KLHL22 (UniProt Q53GT1)
inactive: [1] -0.11 | [4] 0.014 | [5] 0.064 | [6] -0.156 | [7] -0.054 | [8] -0.437 | [10] 0.03 | [11] 0.02 | [12] -0.061 | [2] 0.093 | [13] -0.28 | [14] 0.068 | [15] 0.088

KHNYN (UniProt O15037)
inactive: [1] 0.075 | [3] -0.018 | [4] -0.011 | [5] 0.079 | [8] 0.076 | [9] 0.084 | [11] -0.072 | [12] -0.063 | [2] -0.016 | [13] -0.025 | [14] 0.069 | [15] -0.004 | [16] 0.078 | [17] -0.219

KLHL20 (UniProt Q9Y2M5)
inactive: [18] 0.044 | [3] 0.051 | [4] 0.213 | [19] -0.012 | [5] 0.005 | [6] -0.059 | [7] 0.047 | [8] -0.002 | [9] -0.017 | [10] -0.006 | [11] 0.009 | [12] -0.057 | [13] -0.034 | [14] 0.083 | [15] -0.041 | [20] -0.007

KREMEN1 isoform 2 (UniProt Q96MU8)
inactive: [9] -0.018

KIAA1549 (UniProt Q9HCM3)
inactive: [3] -0.072 | [5] 0.155 | [11] 0.163 | [16] 0.076 | [17] 0.292

KLHL8 (UniProt Q9P2G9)
inactive: [5] 0.029 | [11] 0.071

KLHL26 (UniProt Q53HC5)
inactive: [18] -0.126 | [19] 0.048 | [6] -0.013 | [7] 0.229 | [8] 0.095 | [9] 0.02 | [10] 0.083 | [12] -0.079 | [13] -0.059 | [16] 0.057 | [20] -0.063 | [17] 0.018

KLK3 (UniProt P07288)
inactive: [8] -0.795 | [13] 0.276
